Results deposited as PubChem BioAssay AID743458 (Peter MacCallum Cancer Centre, 2014)

- Test: 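Identify genes whose loss lifts vorinostat resistance in colon cancer cells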 (follow-up of hits)
- Cells: human HCT116-VR colon cancer cells made resistant to vorinostat
- Knock-down reagent: single siRNA or pool against human genes, 25 nM per single siRNA
- Time to read-out: about 72 h after transfection, including 24 h of drug
- Treatment: vorinostat, 2.5 µM final, for 24 h
- Measured: 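Cell viability by fluorescence and apoptosis by caspase 3/7 luminescence under vorinostat, background-corrected, averaged across two plate copies and given as fold change versus mock transfection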
- Direction: viability relative to mock: higher = more living cells than mock; caspase activity relative to mock: higher = more apoptosis than mock
- Active means: 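An siRNA counts as active if classed as reduced viability or as caspase activation, otherwise inactive; a hit class needed wells that remained healthy in the absence of drug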
The whole screen tested about 1,800 reagents; below is an unselected part. Of all reagents, 732 (41%) are marked active. 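Calls are per siRNA reagent; a gene was deemed confirmed only if most of its four siRNAs scored.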 A number with no mark means an inactive call. Reagents against one gene are numbered here.

| viability relative to mock | caspase activity relative to mock | viability hit class | caspase hit class | target | reagent |
| --- | --- | --- | --- | --- | --- |
| 1.02 | 1.12 | no change | no change | RNF183 | 1 |
| 1 | 1.11 | no change | no change | RNF183 | 2 |
| 0.74 | 1.34 | no change | no change | RNF183 | 3 |
| 0.92 | 0.97 | no change | no change | RNF183 | 4 |
| 0.38 (active) | 1.34 | reduced viability | no change | SNRPA1 | 1 |
| 0.64 | 1.41 | no change | no change | SNRPA1 | 2 |
| 0.35 (active) | 2.53 | reduced viability | no change | SNRPA1 | 3 |
| 0.4 (active) | 1.53 | reduced viability | no change | SNRPA1 | 4 |
| 0.16 (active) | 2.74 | reduced viability | caspase activation | PNN | 1 |
| 0.52 (active) | 4.07 | reduced viability | caspase activation | PNN | 2 |
| 0.5 (active) | 4.67 | reduced viability | caspase activation | PNN | 3 |
| 0.44 (active) | 3.05 | reduced viability | caspase activation | PNN | 4 |
| 0.8 | 1.94 | no change | no change | UEVLD | 1 |
| 0.78 | 1.17 | no change | no change | UEVLD | 2 |
| 0.8 | 0.87 | no change | no change | UEVLD | 3 |
| 0.74 (active) | 3.08 | no change | caspase activation | UEVLD | 4 |
| 0.23 | 1.32 | no change | no change | CTIF | 1 |
| 0.78 | 1.69 | no change | no change | CTIF | 2 |
| 0.88 | 1.35 | no change | no change | CTIF | 3 |
| 0.76 | 1.97 | no change | no change | CTIF | 4 |
| 0.54 (active) | 1.8 | reduced viability | no change | GPR12 | 1 |
| 0.82 | 1.24 | no change | no change | GPR12 | 2 |
| 0.84 | 0.94 | no change | no change | GPR12 | 3 |
| 0.57 | 2.21 | no change | no change | GPR12 | 4 |
| 0.96 | 1.27 | no change | no change | B4GALT4 | 1 |
| 0.72 | 1.27 | no change | no change | B4GALT4 | 2 |
| 0.74 | 1.37 | no change | no change | B4GALT4 | 3 |
| 0.87 | 1.02 | no change | no change | B4GALT4 | 4 |
| 0.32 | 2.86 | no change | no change | GPRIN3 | 1 |
| 0.88 | 1.7 | no change | no change | GPRIN3 | 2 |
| 0.26 | 4.55 | no change | no change | GPRIN3 | 3 |
| 1.06 (active) | 2.62 | no change | caspase activation | GPRIN3 | 4 |
| 0.64 | 2.23 | no change | no change | FOXI1 | 1 |
| 0.98 | 1.47 | no change | no change | FOXI1 | 2 |
| 0.97 | 1.17 | no change | no change | FOXI1 | 3 |
| 0.94 | 1.67 | no change | no change | FOXI1 | 4 |
| 0.74 (active) | 2.74 | no change | caspase activation | BTN3A1 | 1 |
| 0.89 | 1.62 | no change | no change | BTN3A1 | 2 |
| 0.22 (active) | 1.31 | reduced viability | no change | BTN3A1 | 3 |
| 0.92 | 0.84 | no change | no change | BTN3A1 | 4 |
| 0.76 | 0.68 | no change | no change | PCP4 | 1 |
| 0.12 (active) | 3.13 | reduced viability | caspase activation | PCP4 | 2 |
| 0.26 (active) | 3.67 | reduced viability | caspase activation | PCP4 | 3 |
| 0.61 (active) | 4.62 | no change | caspase activation | PCP4 | 4 |
| 0.9 | 1.09 | no change | no change | KIAA1143 | 1 |
| 0.66 | 2.22 | no change | no change | KIAA1143 | 2 |
| 0.75 (active) | 5.42 | no change | caspase activation | KIAA1143 | 3 |
| 0.39 (active) | 1.4 | reduced viability | no change | KIAA1143 | 4 |
| 0.9 | 1.01 | no change | no change | SPSB3 | 1 |
| 0.84 | 1.16 | no change | no change | SPSB3 | 2 |
| 0.36 (active) | 0.64 | reduced viability | no change | SPSB3 | 3 |
| 0.92 | 2.01 | no change | no change | SPSB3 | 4 |
| 0.96 | 1.4 | no change | no change | E2F2 | 1 |
| 0.81 | 1.98 | no change | no change | E2F2 | 2 |
| 0.22 (active) | 2.48 | reduced viability | no change | E2F2 | 3 |
| 0.62 | 1.77 | no change | no change | E2F2 | 4 |
| 0.27 | 1.86 | no change | no change | CCBE1 | 1 |
| 0.92 | 2.5 | no change | no change | CCBE1 | 2 |
| 0.68 | 1.68 | no change | no change | CCBE1 | 3 |
| 0.93 | 1.39 | no change | no change | CCBE1 | 4 |
